# Reference: article PMC2596967
# Sequences of proteins named here, by UniProt entry; tags and fusion partners are left off.
# UniProt Q62406: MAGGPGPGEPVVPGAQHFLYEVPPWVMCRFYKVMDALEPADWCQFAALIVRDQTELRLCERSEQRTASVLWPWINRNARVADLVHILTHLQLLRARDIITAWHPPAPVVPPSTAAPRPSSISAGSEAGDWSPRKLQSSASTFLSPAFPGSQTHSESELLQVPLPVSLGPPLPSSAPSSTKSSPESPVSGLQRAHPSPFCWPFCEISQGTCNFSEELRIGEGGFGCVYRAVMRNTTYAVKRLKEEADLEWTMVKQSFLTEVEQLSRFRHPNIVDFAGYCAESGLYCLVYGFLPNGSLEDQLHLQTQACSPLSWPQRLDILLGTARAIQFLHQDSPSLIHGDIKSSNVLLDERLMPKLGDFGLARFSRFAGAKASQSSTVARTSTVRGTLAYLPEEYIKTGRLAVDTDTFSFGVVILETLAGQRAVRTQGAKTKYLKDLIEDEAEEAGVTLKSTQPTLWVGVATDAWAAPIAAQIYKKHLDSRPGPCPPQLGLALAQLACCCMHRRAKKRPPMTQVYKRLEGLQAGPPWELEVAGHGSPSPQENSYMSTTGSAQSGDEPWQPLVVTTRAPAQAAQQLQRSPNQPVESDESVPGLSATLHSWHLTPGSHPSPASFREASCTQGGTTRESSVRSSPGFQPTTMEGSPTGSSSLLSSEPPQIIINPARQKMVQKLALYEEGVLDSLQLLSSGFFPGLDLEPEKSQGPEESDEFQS
# These are yes or no findings as the source states them, for the method shown. Binding seen in cells or lysates may run through a third protein. Some binding calls cover weakened binding; strength is not graded here.
# B1: TRAF6, endogenous in mouse macrophages (protein, UniProt P70196 1-530)
# chain: MSLLNCENSCGSSQSSSDCCAAMAASCSAAVKDDSVSGSASTGNLSSSFMEEIQGYDVEFDPPLESKYECPICLMALREAVQTPCGHRFCKACIIKSIRDAGHKCPVDNEILLENQLFPDNFAKREILSLTVKCPNKGCLQKMELRHLEDHQVHCEFALVNCPQCQRPFQKCQVNTHIIEDCPRRQVSCVNCAVSMAYEEKEIHDQSCPLANIICEYCGTILIREQMPNHYDLDCPTAPIPCTFSVFGCHEKMQRNHLARHLQENTQLHMRLLAQAVHNVNLALRPCDAASPSRGCRPEDPNYEETIKQLESRLVRQDHQIRELTAKMETQSMYVGELKRTIRTLEDKVAEMEAQQCNGIYIWKIGNFGMHLKSQEEERPVVIHSPGFYTGRPGYKLCMRLHLQLPTAQRCANYISLFVHTMQGEYDSHLPWPFQGTIRLTILDQSEALIRQNHEEVMDAKPELLAFQRPTIPRNPKGFGYVTFMHLEALRQGTFIKDDTLLVRCEVSTRFDMGGLRKEGFQPRSTDAGV
# Molecular target: IL-1 receptor-associated kinase 1 (IRAK-1), endogenous in mouse macrophages (mouse (endogenous in bone marrow-derived MØ lines)) (UniProt Q62406)
# Experiment: co-IP; endogenous proteins of mouse MØ lysates; IP with 4 µg IRAK-1 or SHP-1 antibody on protein A/G agarose beads, three washes with lysis buffer, western blot; cells naive, L. donovani-infected and/or stimulated with LPS (100 ng/ml)
binder,measurement,value
B1,binding,binds
